PubChem BioAssay AID1224830 | NIAID – 2016
Screen: 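Host factors that control LPS-induced TNF expression in human macrophages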 (primary screen). Cell system: human THP-1 monocytic leukaemia cells, TNF dual-luciferase reporter clone, PMA-differentiated to macrophage-like cells. Reagent: siRNA pool against human genes, 50 nM. Time to read-out: LPS for 4 h, given about 3 days after siRNA transfection. Challenge: bacterial LPS (TLR4 ligand), 10 ng/ml. Detection: 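Ratio of firefly to renilla light, scaled to the plate median and expressed as a robust z-score per replicate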. Scale: TNF reporter robust z-score: higher = stronger TNF reporter response to LPS. Call rule: 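Each well counts as active if its z-score is over 2.8 or under -1.5; controls are left without a call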.
Shown is a random part of about 18,000 deposited reagents. About 2,900 of all reagents (16%) were called active. 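Calls are made per well; low scores hint the gene aids the LPS response, high scores that it dampens it.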 Repeated entries: four replicate wells of each siRNA pool.

no.	gene	TNF reporter robust z-score	call
1	OR5B21 (olfactory receptor family 5 subfamily B member 21)	-0.84	inactive
2	OR5B21 (olfactory receptor family 5 subfamily B member 21)	1.06	inactive
3	OR5B21 (olfactory receptor family 5 subfamily B member 21)	-0.25	inactive
4	OR5B21 (olfactory receptor family 5 subfamily B member 21)	0.58	inactive
5	SLC6A13	-0.72	inactive
6	SLC6A13	-0.52	inactive
7	SLC6A13	-0.08	inactive
8	SLC6A13	0.05	inactive
9	NOC3L (NOC3 like DNA replication regulator)	-0.21	inactive
10	NOC3L (NOC3 like DNA replication regulator)	0.19	inactive
11	NOC3L (NOC3 like DNA replication regulator)	1.94	inactive
12	NOC3L (NOC3 like DNA replication regulator)	2.31	inactive
13	DICER1 (dicer 1, ribonuclease III)	1.02	inactive
14	DICER1 (dicer 1, ribonuclease III)	-0.24	inactive
15	DICER1 (dicer 1, ribonuclease III)	-0.43	inactive
16	DICER1 (dicer 1, ribonuclease III)	-0.41	inactive
17	TTF2 (transcription termination factor 2)	-0.03	inactive
18	TTF2 (transcription termination factor 2)	-0.15	inactive
19	TTF2 (transcription termination factor 2)	0.46	inactive
20	TTF2 (transcription termination factor 2)	1.63	inactive
21	AGTRAP (angiotensin II receptor associated protein)	0.81	inactive
22	AGTRAP (angiotensin II receptor associated protein)	1.08	inactive
23	AGTRAP (angiotensin II receptor associated protein)	3.59	active
24	SULT1C3 (sulfotransferase family 1C member 3)	-0.04	inactive
25	SULT1C3 (sulfotransferase family 1C member 3)	0.89	inactive
26	SULT1C3 (sulfotransferase family 1C member 3)	0.91	inactive
27	SULT1C3 (sulfotransferase family 1C member 3)	1.06	inactive
28	CAPN5 (calpain 5)	-0.24	inactive
29	CAPN5 (calpain 5)	-0.44	inactive
30	CAPN5 (calpain 5)	-1.02	inactive
31	CAPN5 (calpain 5)	0.33	inactive
32	PAIP1 (poly(A) binding protein interacting protein 1)	-0.24	inactive
33	PAIP1 (poly(A) binding protein interacting protein 1)	-0.11	inactive
34	PAIP1 (poly(A) binding protein interacting protein 1)	-0.55	inactive
35	PAIP1 (poly(A) binding protein interacting protein 1)	-0.45	inactive
36	IL3 (interleukin 3)	-1.52	active
37	IL3 (interleukin 3)	-0.88	inactive
38	IL3 (interleukin 3)	-1.38	inactive
39	IL3 (interleukin 3)	-1.67	active
40	ALDH1A2 (aldehyde dehydrogenase 1 family member A2)	0.9	inactive
41	ALDH1A2 (aldehyde dehydrogenase 1 family member A2)	0.64	inactive
42	ALDH1A2 (aldehyde dehydrogenase 1 family member A2)	0.72	inactive
43	ALDH1A2 (aldehyde dehydrogenase 1 family member A2)	1.29	inactive
44	GCNT4 (glucosaminyl (N-acetyl) transferase 4)	0.35	inactive
45	GCNT4 (glucosaminyl (N-acetyl) transferase 4)	0.4	inactive
46	GCNT4 (glucosaminyl (N-acetyl) transferase 4)	-0.26	inactive
47	GCNT4 (glucosaminyl (N-acetyl) transferase 4)	0.36	inactive
48	GRTP1 (growth hormone regulated TBC protein 1)	0.68	inactive
49	GRTP1 (growth hormone regulated TBC protein 1)	1	inactive
50	GRTP1 (growth hormone regulated TBC protein 1)	0.54	inactive
51	GRTP1 (growth hormone regulated TBC protein 1)	-1.55	active
52	ATP1A3 (ATPase Na+/K+ transporting subunit alpha 3)	-0.98	inactive
53	ATP1A3 (ATPase Na+/K+ transporting subunit alpha 3)	-0.94	inactive
54	ATP1A3 (ATPase Na+/K+ transporting subunit alpha 3)	-1.37	inactive
55	ATP1A3 (ATPase Na+/K+ transporting subunit alpha 3)	-0.95	inactive
56	GPR35 (G protein-coupled receptor 35)	1.34	inactive
57	GPR35 (G protein-coupled receptor 35)	0.88	inactive
58	GPR35 (G protein-coupled receptor 35)	0.59	inactive
59	GPR35 (G protein-coupled receptor 35)	0.35	inactive
60	MFSD11 (major facilitator superfamily domain containing 11)	0	inactive
61	MFSD11 (major facilitator superfamily domain containing 11)	0.32	inactive
62	MFSD11 (major facilitator superfamily domain containing 11)	-0.05	inactive
63	MFSD11 (major facilitator superfamily domain containing 11)	2.3	inactive
64	CYGB (cytoglobin)	-0.15	inactive
65	CYGB (cytoglobin)	0.29	inactive
66	CYGB (cytoglobin)	-0.45	inactive
67	CYGB (cytoglobin)	-0.44	inactive
68	PXDN (peroxidasin)	-0.96	inactive
69	PXDN (peroxidasin)	-0.99	inactive
70	PXDN (peroxidasin)	-1.48	inactive
71	PXDN (peroxidasin)	-0.61	inactive
72	ING4 (inhibitor of growth family member 4)	0.86	inactive
73	ING4 (inhibitor of growth family member 4)	0.51	inactive
74	ING4 (inhibitor of growth family member 4)	1.55	inactive
75	ING4 (inhibitor of growth family member 4)	2.65	inactive
76	ZFPM2 (zinc finger protein, FOG family member 2)	-1.28	inactive
77	ZFPM2 (zinc finger protein, FOG family member 2)	-0.77	inactive
78	ZFPM2 (zinc finger protein, FOG family member 2)	-0.98	inactive
79	ZFPM2 (zinc finger protein, FOG family member 2)	0.31	inactive
80	ARHGEF9 (Cdc42 guanine nucleotide exchange factor 9)	-0.86	inactive
81	ARHGEF9 (Cdc42 guanine nucleotide exchange factor 9)	-0.07	inactive
82	ARHGEF9 (Cdc42 guanine nucleotide exchange factor 9)	0.3	inactive
83	ARHGEF9 (Cdc42 guanine nucleotide exchange factor 9)	0.61	inactive
84	GPR179 (G protein-coupled receptor 179)	1.49	inactive
85	GPR179 (G protein-coupled receptor 179)	5.22	active
86	GPR179 (G protein-coupled receptor 179)	-0.38	inactive
87	GPR179 (G protein-coupled receptor 179)	0.16	inactive
88	ANKRD10 (ankyrin repeat domain 10)	-0.93	inactive
89	ANKRD10 (ankyrin repeat domain 10)	-0.32	inactive
90	ANKRD10 (ankyrin repeat domain 10)	-1.11	inactive
91	ANKRD10 (ankyrin repeat domain 10)	-0.65	inactive
92	RGS10 (regulator of G protein signaling 10)	4.97	active
93	RGS10 (regulator of G protein signaling 10)	4.07	active
94	RGS10 (regulator of G protein signaling 10)	0.42	inactive
95	RGS10 (regulator of G protein signaling 10)	0.05	inactive
96	RHOT1 (ras homolog family member T1)	-0.33	inactive
97	RHOT1 (ras homolog family member T1)	0.22	inactive
98	RHOT1 (ras homolog family member T1)	18.5	active
99	RHOT1 (ras homolog family member T1)	1.89	inactive
100	OS9 (OS9 endoplasmic reticulum lectin)	-0.71	inactive
101	OS9 (OS9 endoplasmic reticulum lectin)	0.02	inactive
102	OS9 (OS9 endoplasmic reticulum lectin)	-0.21	inactive
103	OS9 (OS9 endoplasmic reticulum lectin)	1.09	inactive
104	RHBG (Rh family B glycoprotein)	1.79	inactive
105	RHBG (Rh family B glycoprotein)	0.83	inactive
106	RHBG (Rh family B glycoprotein)	1.53	inactive
107	RHBG (Rh family B glycoprotein)	0.12	inactive
108	P3H2 (prolyl 3-hydroxylase 2)	-0.06	inactive
109	P3H2 (prolyl 3-hydroxylase 2)	-0.38	inactive
110	P3H2 (prolyl 3-hydroxylase 2)	0	inactive
111	P3H2 (prolyl 3-hydroxylase 2)	0.16	inactive

Hits, among the entries above:
gene	TNF reporter robust z-score	call
AGTRAP (angiotensin II receptor associated protein)	3.59	active
IL3 (interleukin 3)	-1.52	active
IL3 (interleukin 3)	-1.67	active
GRTP1 (growth hormone regulated TBC protein 1)	-1.55	active
GPR179 (G protein-coupled receptor 179)	5.22	active
RGS10 (regulator of G protein signaling 10)	4.97	active
RGS10 (regulator of G protein signaling 10)	4.07	active
RHOT1 (ras homolog family member T1)	18.5	active
